# Experimental data reported in patent US20210032347A1 (JIANGSU HANSOH PHARMACEUTICAL GROUP, published 2021).
# Amino acid sequences for entries named in this document (tags omitted). A change or cut given only in a name is not applied to a line headed by its entry.
# UniProt Q7Z7D3: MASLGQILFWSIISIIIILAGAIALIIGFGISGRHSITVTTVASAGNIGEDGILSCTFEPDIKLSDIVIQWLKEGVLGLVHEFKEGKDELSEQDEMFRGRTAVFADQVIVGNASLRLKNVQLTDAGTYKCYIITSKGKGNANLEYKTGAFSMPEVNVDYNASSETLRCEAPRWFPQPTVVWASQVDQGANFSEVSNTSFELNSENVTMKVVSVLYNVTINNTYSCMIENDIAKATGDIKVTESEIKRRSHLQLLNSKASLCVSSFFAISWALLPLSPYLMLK
# These are yes or no findings as the source states them, for the method shown. Some entries that bind do so weakly or less than the wild type.
# Target: Human B7-H4 with HisFlag tag (huB7-H4-his) (human) (UniProt Q7Z7D3)
# Assay: SPR Biacore, as in Example 5
row,Binder,binding
1,"humanized anti-B7-H4 antibody hu2G6 (antibody, human IgG1, kappa, V domains shown, human IgG1 / kappa; also called humanized antibody 2G6) VH: EVQLLESGGGLVQPGGSLRLSCAASGFTFSRYGMSWVRQAPGKGLEWVSGINGGGSYTYYLDTVKGRFTISRDNARNTLYLQMSSLRAEDTAVYYCVSQGSNYYFDYWGQGTLVTVSS VL: DIRMTQSPSSLSASVGDRVTITCHASQGISSNIGWLQQKPGKAPKALIYHGTNLEDGVPSRFSGSGSGADYTLTISSLQPEDFATYYCVQYAQFPYTFGGGTKVEIKR",binds
2,"humanized anti-B7-H4 antibody hu2F8 (antibody, human IgG1, kappa, V domains shown, human IgG1 / kappa; also called humanized antibody 2F8) VH: EVQLVQSGAEVKKPGASVKVSCKASGYTFTSSWMNWVRQAPGQRLEWMGGIYPNRGNIEYNEKFKGRVTLTVDTSASTAYMELSSLRSEDTAVYYCARDSRFSYWGQGTLVTVSS VL: DIQMTQSPSSLSASVGDRVTITCKASQDVRTAVAWYQQKPGKAPKLLISSTSYRYTGVPSRFSGSGSGTDFTFTISSLQPEDIATYYCQQHYSTPLTFGGGTKVEIKR",binds

# Next, values leading:
row,binding,Binder
1,binds,"humanized anti-B7-H4 antibody hu2F7 (antibody, human IgG1, kappa, V domains shown, human IgG1 / kappa; also called humanized antibody 2F7) VH: EVQLVESGGGLVQPGGSLRLSCAASGFTFSNYYMSWVRQAPGKGLEWVAYVSSGGGSTYYSDSVKGRFTISRDNAKNTLYLQMSSLRAEDTAVYYCTRESYSQGNYFDYWGQGTTVTVSS VL: EIVMTQSPATLSLSPGERATLSCRASQSISDYLHWYQQKPGQSPRLLIKFASQSISGIPARFSGSGSGTDFTLTISSLEPEDFAVYYCQNGHSFSLTFGQGTKLEIKR"
2,binds,"humanized anti-B7-H4 antibody hu1C9 (antibody, human IgG1, kappa, V domains shown, human IgG1 / kappa; also called humanized antibody 1C9) VH: EVQLVQSGAEVKKPGASVKVSCKASGDTFTTYWMNWVRQAPGQRLEWMGGIYLNRGSSEYNEKFKGRVTLTVDTSASTAYMELSSLRSEDTAVYYCARDSRFSYWGQGTLVTVSS VL: DIQMTQSPSSLSASVGDRVTITCKASQDVSTAVAWYQQKPGKAPKLLISSASYRYTGVPSRFSGSGSGTDFTFTISSLQPEDIATYYCQQHYNTPLTFGGGTKVEIKR"

# Target: Human B7-H4 with HisFlag tag (huB7-H4-his) (human) (UniProt Q7Z7D3)
# Assay: in vitro ELISA binding assay (FIG. 1)
row,Binder,binding
1,"chimeric antibody 1C9 (antibody, human IgG1, V domains shown) VH: QVQLQQPGSVLVRPGASVKLSCKASGDTFTTYWMNWVKQRPGQGLEWIGGIYLNSGSSEYNEKFKGKATLSVDTSSSTAYMDLSSLTSEDSAVYYCARDSRFSYWGQGTLVTVSA VL: DIVMTQSHKFLSTSVGDRVSITCKASQDVSTAVAWYQQKPGQSPELLISSASYRYTGVPDRFTGSGSGTDFTFTISSVQAEDLAVYYCQQHYNTPLTFGAGTQLELK",binds
2,"chimeric antibody 2A10 (antibody, human IgG1, V domains shown) VH: EVQLVESGGGFVKPGGSLKLSCAASGFTFSTFGMSWVRQTPDKRLEWVAGISPGGSYTYYPDTVKGRFTISRDNARNTLYLQMSSLRSEDSAMYYCTRGRSVWGTGTTVTVSS VL: DILMTQSPSSMSVSLGDTVSITCHASQDISSNIGWLQQKPGKSFKGLIYHGTTLEDGIPSRFSGSGSGADYSLTISSLESEDFADYYCVQSAQFPWTFGGGTKLEIK",binds
3,"chimeric antibody 2F4 (antibody, human IgG1, V domains shown, also called ch-2F4) VH: EVQLVESGGGLVKPGGSLKLSCAASGLTFSRYAMSWVRQTPEKRLEWVAGISSGGSYTYYSDTVKGRFTISRDNVRNTLYLQMSSLRSEDTAMYYCGREYGRDYWGQGTSVTVSS VL: DILMTQSPSSMSVSLGDTVSITCHASQGINSNIGWLQQKPGKSFKGLIYHGTNLEDGVPSRFSGSGSGTDYSLTISSLESEDFADYYCVQYAQFPRTFGGGTTLEIK",binds

# Second part, the binder after the results:
row,binding,Binder
1,binds,"chimeric antibody 2F8 (antibody, human IgG1, V domains shown, also called ch-2F8) VH: QVQLQQPGSVLVRPGASVKLSCKASGYTFTNSWMNWAKLRPGQGLEWIGGIYPNSGNIEYNEKFKGKATLTVDTSSSTAYMDLTSLTSEDSAVYYCARDSRFSYWGQGTLVTVSA VL: DIVMTQSHKFMSTSVGDRVSITCKASQDVRTAVAWYQQKPGQSPKLLISSTSYRYTGVPDRFTGSGSGTDFTFIISSVQAEDLAVYYCQQHYSTPLTFGAGTKLELK"
2,binds,"chimeric antibody 2G6 (antibody, human IgG1, V domains shown) VH: EVQLVESGGGLVKPGGSLKLSCAASGFTFSRYGMSWVRQTPEKRLEWVAGINGGGSYTYYLDTVKGRFTISRDNSRNTLYLQMSSLRSEDTAMYYCVSQGSNYYFDYWGQGTTLTVSS VL: DIRMTQSPSSMSVSLGDTVSITCHASQGISSNIGWLQQKPGKSFKALIYHGTNLEDGVPSRFSGSGSGADYSLTISSLESEDFADYYCVQYAQFPYTFGGGTKLEIK"
3,binds,"chimeric antibody 2F7 (antibody, human IgG1, V domains shown, also called ch-2F7) VH: EVQLVESGGGLVQPGGSLKLSCAASGFTFSNYYMSWVRQTPEKRLEWVAYVSSGGGSTYYSDSVKGRFTISRDNAKNTLYLQMSSLKPEDTAMYYCTRESYSQGNYFDYWGQGTTLTVSS VL: DIVMTQSPATLSVTPGDRVSLSCRASQSISDYLHWYQQKSHESPRLLIKFASQSISGIPSRFSGSGSGSDFTLSINSVEPEDVGVYYCQNGHSFSLTFGAGTKLELK"
